PubChem BioAssay AID1259425 | University of Nebraska Medical Center – 2018

- Aim: 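Seek colon cancer weak points whose silencing resembles KSR1 loss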 (primary screen)
- Cell system: HCT116 human colon cancer cells
- Reagent: siRNA pool against human genes, 50 nM siRNA
- Read-out: 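mRNA of six signature genes measured together by branched-DNA assay after 50 nM siRNA pool, blank removed, divided by geometric mean of two housekeeping genes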
- Direction: BNIP3L mRNA: higher = more BNIP3L transcript after knockdown
Here is an unselected part of about 14,000 reagents tested. A reagent listed more than once was tested more than once; the source does not tell the runs apart. Not all columns of the deposit are shown. No sequences are given here. Not given: the time to read-out.

gene,"BNIP3L mRNA, set 1"
TM9SF2 (GeneID 9375),0.156
GNA11 (GeneID 2767),0.247
RAB32 (GeneID 10981),0.092
ARL6IP1 (GeneID 23204),0.105
RNF167 (GeneID 26001),0.0755
RABGAP1 (GeneID 23637),0.0758
RABGAP1 (GeneID 23637),0.0916
MICB (GeneID 4277),0.072
CAB39 (GeneID 51719),0.0701
IFT74 (GeneID 80173),0.0455
HMX1 (GeneID 3166),0.121
TIMP3 (GeneID 7078),0.0341
CYC1 (GeneID 1537),0.145
THTPA (GeneID 79178),0.193
MAPK8 (GeneID 5599),0.108
TAP2 (GeneID 6891),0.086
SPATA16 (GeneID 83893),0.301
HDDC2 (GeneID 51020),0.0957
KIF20B (GeneID 9585),0.0783
RAPGEFL1 (GeneID 51195),0.0965
